Data reported in US9814741B2, “Methods relating to DNA-sensing pathway related conditions” (THE GENERAL HOSPITAL CORPORATION, priority 2012, dated 2017).
At least one compound was matched to its structure with a doubt left.

Key:
murine or human cells = experiment: Ifnb1 and CXCL10 induction in DNA (ISD)-stimulated murine or human cells treated with small molecule inhibitors; assay type: cell-based
[1] = test system: Trex1-/- MEFs infected with retrovirus; experiment: Retroviral infection of Trex1-/- MEFs treated with small molecule inhibitors, Ifnb1/ISG induction by qRT-PCR; assay type: cell-based, mouse; settings: 400 nM celastrol, 750 nM 17-DMAG, 500 nM BX795
Protocol: FIG. 6A-E is series of graphs and heat maps showing the inhibition of identified regulators by RNAi or small molecules modulates the innate immune response to retroviral infection. (FIG. 6A) Trex1−/−MEFs treated with indicated siRNAs were infected with retrovirus for 21.5 h, and induction levels of Cxcl10 mRNA were determined by qRT-PCR. P-values compared with control siRNA (siNeg)-treated cells (after Benjamini-Hochberg correction for multiple testing, marked as asterisks) with P=0.05 and P=0.10 indicated as dotted lines. Data presented as mean and s.d. (n=3). Known ISD pathway genes are indicated with arrowheads. Genes whose protein products can be inhibited by existing small molecule inhibitors are marked with arrows. (FIGS. 6B,6C) Trex1−/−MEFs treated with indicated siRNAs were infected with retrovirus, and induction levels of Ifnb1 mRNA were determined by qRT-PCR. Data presented as mean and s.d. (n=3). (FIGS. 6D, 6E) Trex1−/−MEFs treated with small molecule inhibitors were infected with retrovirus, and induction levels of Ifnb1 or a panel of ISGs was determined by qRT-PCR. Data are averages of duplicate wells. Small molecules were used at: 400 nM celastrol, 750 nM 17-DMAG, 500 nM BX795, 30 uM PTPN1 inhibitor, and 10 nM okadaic acid. […]

[2] = test system: Human fibroblasts from a patient with Aicardi-Goutieres syndrome (AGS); experiment: Mx1 induction by qRT-PCR in AGS patient fibroblasts treated with small molecule inhibitors and infected with retrovirus; assay type: cell-based; settings: AGS patient cells, compared to vehicle; 500 nM celastrol, 100 nM 17-DMAG
Protocol: FIG. 7 is a graph showing the relative expression of Mx1 in Aicardi-Goutieres syndrome (AGS) patient and control cells. Human fibroblasts cultured from a healthy control and a patient with AGS who is compound heterozygote for mutations in the Trex1 gene (R114H/D201ins). Cells were treated with vehicle alone or small molecule inhibitors and infected with retrovirus. Induction levels of Mx1 were determined by qRT-PCR. Data are averages of triplicate wells. Small molecules were used at: 500 nM celastrol, 100 nM 17-DMAG, and 500 nM BX795.
Quantitative RT-PCR. Total RNA was prepared from cells using the RNeasy Mini kit (Qiagen). cDNA was synthesized using the High Capacity cDNA Reverse Transcription Kit (Applied Biosystems). Real time qPCR was performed using SYBR Green (Roche) and the LightCycler 480 system (Roche) according to instructions provided by the manufacturer. Relative amounts of mRNA were normalized to Gapdh levels in each sample.
Human fibroblasts were cultured from a healthy control and a patient with Aicardi-Goutieres syndrome (AGS) who was compound heterozygote for mutations in the Trex1 gene (R114H/D201ins). Cells were treated with vehicle alone or small molecule inhibitors and infected with retrovirus (FIG. 7). Induction levels of Mx1 were determined by qRT-PCR. Data was graphed as averages of triplicate wells (FIG. 7). […]

SMILES: CC1=C(O)C(=O)C=C2C1=CC=C1[C@@]2(C)CC[C@@]2(C)[C@@H]3C[C@](C)(C(=O)O)CC[C@]3(C)CC[C@]12C [celastrol]
- CXCL10 induction (murine or human cells; FIG. 4A and FIG. 11A): potently reduced
- Ifnb1 induction (murine or human cells; FIG. 4A and FIG. 11A (MLFs, 500 nM celastrol, 4 ug/mL DNA HIV gag-100, 5.5 h)): potently reduced
- retroviral infection-induced Ifnb1 induction [1]: potently abrogated
- Mx1 expression following retroviral infection [2]: failed to induce Mx1 expression
